From paper PMC12979858

Biological target: WDR47 C-terminal WD40 repeats-containing region (Flag-tagged fragment) (mouse)
Assay: co-IP; HEK293T cells exogenously expressing the tagged proteins; high-salt lysis buffer (1% NP-40, 500 mM NaCl, 50 mM HEPES pH 7.8, 5 mM EDTA); anti-GFP or anti-Flag agarose beads, 4 C, 4 h; immunoblot

B1: SPEF1 (tagged, expressed in HEK293T) (protein, UniProt Q99JL1 1-234)
chain: MESSVDEEALHQLYLWVDNIPLSRPKRNLSRDFSDGVLVAELIKFYFPKMVEMHNYVPANSLQQKLSNWGHLNRKVLNKLNFSVPDDVMRKIAQCSPGVVELVLIPLRQRLEERQRRQKLGVGSLQELAPQDSSGYMDMGLPQKVRGEGAPALGEQLREGRPLASRPPGYNQALQGDPSFVLQIAEKEQELLASQETVQVLQMKVKRLEHLLQLKNVRIDDLSRRLQQAERKQR
- binding: binds

These are yes or no findings as the source states them, for the method shown. In cells and extracts the contact can be indirect. Binding calls can cover weak binding; strength is not graded here. Tags and fused reporters may be left off the sequences shown.
